From patent US20250331521A1, “NITROGEN-CONTAINING HETEROCYCLIC COMPOUND HAVING AN OXIME GROUP, AGRICULTURAL OR HORTICULTURAL HERBICIDE COMPRISING THE COMPOUND, AND METHOD FOR USING THE COMPOUND OR THE HERBICIDE” (NIHON NOHYAKU CO., LTD., priority 2022, published 2025)
Some of these results come from one statement about several compounds together. Some ranges recur; such a range may be that of the whole group of compounds.

Test system: Barnyard grass (Echinochloa crus-galli)
Test: Test Example 1: post-emergence herbicidal effect against paddy weeds
Type: in vivo
Conditions: active ingredient concentration 10 ppm; drop treatment in hydroponic medium; 30° C., full light; six days after treatment; compared to non-treatment group
Description: Test Example 1: Test for Post-Emergence Herbicidal Effect Against Paddy Weeds Barnyard grass (Echinochloa crus-galli) was seeded and grown in test tubes containing hydroponic medium in an artificial climate chamber or a phytotron. Agrochemical formulations containing the compounds of the present invention as active ingredients prepared according to Formulation Example 1 were separately diluted with water so that the concentration of the active ingredient would be a predetermined concentration and used for drop treatment of the barnyard grass. The barnyard grass was grown in the artificial climate chamber at 30° C. under full light conditions. Six days after agrochemical treatment, the herbicidal effect was evaluated as compared to the non-treatment group according to the following criteria. Criteria for Herbicidal Effect (Degree of Growth Inhibition) and Phytotoxicity • Score 4 90% to 100% herbicidal effect • Score 3 70% to 89% herbicidal effect • Score 2 40% to 69% herbicidal effect • Score 1 1% to 39% herbicidal effect • Score 0 0% herbicidal effect

| Compound | herbicidal effect against barnyard grass (score, degree of growth inhibition) |
| --- | --- |
| CNS(=O)(=O)c1ccc(/C(N)=N/OC(C)C)nc1-n1nc(-c2cccnc2Cl)nc1C [3-120] | 3 (Score 3 70% to 89% herbicidal effect) |
| CCO/N=C(\N)c1ccc(S(=O)(=O)NC)c(-n2nc(-c3ccccn3)nc2C)n1 [3-121] | 3 (Score 3 70% to 89% herbicidal effect) |
| CCO/N=C(\N)c1ccc(S(=O)(=O)NC)c(-n2nc(-c3cccnc3)nc2C)n1 [3-123] | 3 (Score 3 70% to 89% herbicidal effect) |
| CCO/N=C(\N)c1ccc(S(=O)(=O)NC)c(-n2nc(-c3ncccc3Cl)nc2C)n1 [3-124] | 3 (Score 3 70% to 89% herbicidal effect) |
| CNS(=O)(=O)c1ccc(/C(N)=N/OC)nc1-n1nc(-c2ncccc2Cl)nc1C [3-125] | 3 (Score 3 70% to 89% herbicidal effect) |
| CCO/N=C(\N)c1ccc(S(=O)(=O)NC)c(-n2nc(-c3cncs3)nc2C)n1 [3-168] | 3 (Score 3 70% to 89% herbicidal effect) |
| CCO/N=C(\N)c1ccc(S(=O)(=O)NC)c(-n2nc(-c3cscn3)nc2C)n1 [3-171] | 3 (Score 3 70% to 89% herbicidal effect) |
| CNS(=O)(=O)c1ccc(/C(N)=N/OC)nc1-n1nc(-c2cccs2)nc1C [3-176] | 3 (Score 3 70% to 89% herbicidal effect) |
| CCO/N=C(\N)c1ccc(S(=O)(=O)NC)c(-n2nc(-c3cccs3)nc2C)n1 [3-177] | 3 (Score 3 70% to 89% herbicidal effect) |
| CNS(=O)(=O)c1ccc(/C(N)=N/OC)nc1-n1nc(-c2ccsc2)nc1C [3-179] | 3 (Score 3 70% to 89% herbicidal effect) |
| CCO/N=C(\N)c1ccc(S(=O)(=O)NC)c(-n2nc(-c3ccsc3)nc2C)n1 [3-180] | 3 (Score 3 70% to 89% herbicidal effect) |
| CCO/N=C(\N)c1ccc(S(C)(=O)=O)c(-n2nc(-c3cccs3)nc2C)n1 [3-191] | 3 (Score 3 70% to 89% herbicidal effect) |
| CCO/N=C(\N)c1ccc(S(=O)(=O)NC)c(-n2nc(-c3sccc3C)nc2C)n1 [3-192] | 3 (Score 3 70% to 89% herbicidal effect) |
| CCO/N=C(\N)c1ccc(S(=O)(=O)NC)c(-n2nc(-c3sccc3Cl)nc2C)n1 [3-193] | 3 (Score 3 70% to 89% herbicidal effect) |
| CNS(=O)(=O)c1ccc(/C(N)=N/OC)nc1-n1nc(-c2sc(Cl)cc2Cl)nc1C [3-195] | 3 (Score 3 70% to 89% herbicidal effect) |
| CCO/N=C(\N)c1ccc(S(=O)(=O)NC)c(-n2nc(-c3sccc3F)nc2C)n1 [3-197] | 3 (Score 3 70% to 89% herbicidal effect) |
| CCCCc1nc(C)n(-c2nc(/C(N)=N/OCC)ccc2S(=O)(=O)NC)n1 [3-198] | 3 (Score 3 70% to 89% herbicidal effect) |
| C=C(C)c1nc(C)n(-c2nc(/C(N)=N/OCC)ccc2S(=O)(=O)NC)n1 [3-200] | 3 (Score 3 70% to 89% herbicidal effect) |
| CNS(=O)(=O)c1ccc(/C(N)=N/OC)nc1-n1nc(-c2sccc2Cl)nc1C [3-201] | 3 (Score 3 70% to 89% herbicidal effect) |
| CCO/N=C(\N)c1ccc(S(=O)(=O)NC)c(-n2nc(CC(C)C)nc2C)n1 [3-203] | 3 (Score 3 70% to 89% herbicidal effect) |
| CCO/N=C(\N)c1ccc(S(=O)(=O)NC)c(-n2nc(CCC(C)C)nc2C)n1 [3-204] | 3 (Score 3 70% to 89% herbicidal effect) |
| CCO/N=C(\N)c1ccc(S(=O)(=O)NC)c(-n2nc(C3CC3)nc2C)n1 [3-205] | 3 (Score 3 70% to 89% herbicidal effect) |
| C=C(C)c1nc(C)nn1-c1nc(/C(N)=N/OCC)ccc1S(=O)(=O)NC [3-206] | 3 (Score 3 70% to 89% herbicidal effect) |
| CCCSc1nc(C)n(-c2nc(/C(N)=N/OCC)ccc2S(=O)(=O)NC)n1 [3-208] | 3 (Score 3 70% to 89% herbicidal effect) |
| CCO/N=C(\N)c1ccc(S(=O)(=O)NC)c(-n2nc(SCC)nc2C)n1 [3-209] | 3 (Score 3 70% to 89% herbicidal effect) |
| CCc1nc(-c2cccs2)nn1-c1nc(/C(N)=N/OC)ccc1S(=O)(=O)NC [3-229] | 3 (Score 3 70% to 89% herbicidal effect) |
| CCO/N=C(\N)c1ccc(S(=O)(=O)NC)c(-n2nc(-c3cccs3)nc2CC)n1 [3-230] | 3 (Score 3 70% to 89% herbicidal effect) |

| Compound | herbicidal effect against barnyard grass (score, degree of growth inhibition) |
| --- | --- |
| CCc1nc(-c2ccccc2)nn1-c1nc(/C(N)=N/OC)ccc1S(=O)(=O)NC [3-250] | 3 (Score 3 70% to 89% herbicidal effect) |
| CCO/N=C(\N)c1ccc(S(=O)(=O)NC)c(-n2nc(-c3ccccc3)nc2CC)n1 [3-251] | 3 (Score 3 70% to 89% herbicidal effect) |
| CCO/N=C(\N)c1ccc(S(=O)(=O)NC)c(-n2nc(-c3cc(C)ns3)nc2C)n1 [3-265] | 3 (Score 3 70% to 89% herbicidal effect) |
| CCO/N=C(\N)c1ccc(S(=O)(=O)NC)c(-n2nc(-c3sccc3Br)nc2C)n1 [3-267] | 3 (Score 3 70% to 89% herbicidal effect) |
| CCO/N=C(\N)c1ccc(S(=O)(=O)NC)c(-n2nc(-c3sc(Cl)cc3F)nc2C)n1 [3-268] | 3 (Score 3 70% to 89% herbicidal effect) |
| CCO/N=C(\N)c1ccc(S(=O)(=O)NC)c(-n2nc(-c3sc(Br)cc3F)nc2C)n1 [3-269] | 3 (Score 3 70% to 89% herbicidal effect) |
| CCO/N=C(\N)c1ccc(S(=O)(=O)NC)c(-n2nc(-c3snnc3C)nc2C)n1 [3-270] | 3 (Score 3 70% to 89% herbicidal effect) |
| CCO/N=C(\N)c1ccc(S(=O)(=O)NC)c(-n2nc(-c3nnsc3C)nc2C)n1 [3-271] | 3 (Score 3 70% to 89% herbicidal effect) |
| CCO/N=C(\N)c1ccc(S(=O)(=O)NC)c(-n2nc(-c3ccoc3)nc2C)n1 [3-272] | 3 (Score 3 70% to 89% herbicidal effect) |
| CCO/N=C(\N)c1ccc(S(=O)(=O)NC)c(-n2nc(-c3ccns3)nc2C)n1 [3-273] | 3 (Score 3 70% to 89% herbicidal effect) |
| CCO/N=C(\N)c1ccc(S(=O)(=O)NC)c(-n2nc(-c3ccco3)nc2C)n1 [3-274] | 3 (Score 3 70% to 89% herbicidal effect) |
| CCO/N=C(\N)c1ccc(S(=O)(=O)NC)c(-n2nc(CC)nc2CC)n1 [3-278] | 3 (Score 3 70% to 89% herbicidal effect) |
| CCO/N=C(\N)c1ccc(S(=O)(=O)NC)c(-n2nc(-c3ccnn3C)nc2C)n1 [3-279] | 3 (Score 3 70% to 89% herbicidal effect) |
| C=Cc1nc(-c2cccs2)nn1-c1nc(/C(N)=N/OCC)ccc1S(C)(=O)=O [3-324] | 3 (Score 3 70% to 89% herbicidal effect) |
| CCO/N=C(\N)c1ccc(S(C)(=O)=O)c(-n2nc(-c3cccs3)nc2CC)n1 [3-377] | 3 (Score 3 70% to 89% herbicidal effect) |
| CCO/N=C(\N)c1ccc(S(C)(=O)=O)c(-n2nc(-c3cccs3)nc2C(F)F)n1 [3-378] | 3 (Score 3 70% to 89% herbicidal effect) |
| CCO/N=C(\N)c1ccc(S(C)(=O)=O)c(-n2nc(-c3ccccc3)cc2C)n1 [4-1] | 3 (Score 3 70% to 89% herbicidal effect) |
| CCO/N=C(\N)c1ccc(S(C)(=O)=O)c(-n2nc(-c3ccccc3Cl)cc2C)n1 [4-2] | 3 (Score 3 70% to 89% herbicidal effect) |
| CCO/N=C(\N)c1ccc(S(=O)(=O)NC)c(-n2nc(-c3ccc(C#N)cc3)cc2C)n1 [4-3] | 3 (Score 3 70% to 89% herbicidal effect) |
| CCO/N=C(\N)c1ccc(S(=O)(=O)NC)c(-n2nc(-c3ccccc3Cl)cc2C)n1 [4-5] | 3 (Score 3 70% to 89% herbicidal effect) |
| CCO/N=C(\N)c1ccc(S(=O)(=O)NC)c(-n2nc(-c3ccc(OC)cc3)cc2C)n1 [4-8] | 3 (Score 3 70% to 89% herbicidal effect) |
| CNS(=O)(=O)c1ccc(/C(N)=N/OC)nc1-n1nc(-c2ccccc2Br)cc1C [4-9] | 3 (Score 3 70% to 89% herbicidal effect) |
| CNS(=O)(=O)c1ccc(/C(N)=N/OC)nc1-n1nc(-c2ccccc2C#N)cc1C [4-10] | 3 (Score 3 70% to 89% herbicidal effect) |
| CNS(=O)(=O)c1ccc(/C(N)=N/OC)nc1-n1nc(-c2ccccc2)cc1C [4-12] | 3 (Score 3 70% to 89% herbicidal effect) |
| CNS(=O)(=O)c1ccc(/C(N)=N/OC)nc1-n1nc(-c2ccccc2Cl)cc1C [4-13] | 3 (Score 3 70% to 89% herbicidal effect) |
| CCO/N=C(\N)c1ccc(S(=O)(=O)NC)c(-n2nc(-c3ccc(Cl)cc3)cc2C)n1 [4-14] | 3 (Score 3 70% to 89% herbicidal effect) |
